Values quoted from earlier work as cited in patent US12458703B2, “Responsive elastic polymers and methods of making and using same” (Purdue Research Foundation, priority 2016, dated 2025).

Conditions: reference line in FIG. 15, reference [24]; cited from earlier work

## CN1CC[C@]23c4c5ccc(O)c4O[C@H]2[C@@H](O)C=C[C@H]3[C@H]1C5 [morphine]
  therapeutic plasma concentration: 10 ng/mL
